Assay results as given in publication PMC12053661.
Results are given in words; binding and its absence hold for the method and conditions named. In cells and extracts the contact can be indirect. Here binding means that the protein was enriched with, or labelled near, the bait; the list need not be complete. Tags and fused reporters may be left off the sequences shown.

Molecular target: T1, Spt6-3XFLAG (wild type) (S. cerevisiae (endogenous in strain S288c)) (UniProt P23615)
T1 sequence: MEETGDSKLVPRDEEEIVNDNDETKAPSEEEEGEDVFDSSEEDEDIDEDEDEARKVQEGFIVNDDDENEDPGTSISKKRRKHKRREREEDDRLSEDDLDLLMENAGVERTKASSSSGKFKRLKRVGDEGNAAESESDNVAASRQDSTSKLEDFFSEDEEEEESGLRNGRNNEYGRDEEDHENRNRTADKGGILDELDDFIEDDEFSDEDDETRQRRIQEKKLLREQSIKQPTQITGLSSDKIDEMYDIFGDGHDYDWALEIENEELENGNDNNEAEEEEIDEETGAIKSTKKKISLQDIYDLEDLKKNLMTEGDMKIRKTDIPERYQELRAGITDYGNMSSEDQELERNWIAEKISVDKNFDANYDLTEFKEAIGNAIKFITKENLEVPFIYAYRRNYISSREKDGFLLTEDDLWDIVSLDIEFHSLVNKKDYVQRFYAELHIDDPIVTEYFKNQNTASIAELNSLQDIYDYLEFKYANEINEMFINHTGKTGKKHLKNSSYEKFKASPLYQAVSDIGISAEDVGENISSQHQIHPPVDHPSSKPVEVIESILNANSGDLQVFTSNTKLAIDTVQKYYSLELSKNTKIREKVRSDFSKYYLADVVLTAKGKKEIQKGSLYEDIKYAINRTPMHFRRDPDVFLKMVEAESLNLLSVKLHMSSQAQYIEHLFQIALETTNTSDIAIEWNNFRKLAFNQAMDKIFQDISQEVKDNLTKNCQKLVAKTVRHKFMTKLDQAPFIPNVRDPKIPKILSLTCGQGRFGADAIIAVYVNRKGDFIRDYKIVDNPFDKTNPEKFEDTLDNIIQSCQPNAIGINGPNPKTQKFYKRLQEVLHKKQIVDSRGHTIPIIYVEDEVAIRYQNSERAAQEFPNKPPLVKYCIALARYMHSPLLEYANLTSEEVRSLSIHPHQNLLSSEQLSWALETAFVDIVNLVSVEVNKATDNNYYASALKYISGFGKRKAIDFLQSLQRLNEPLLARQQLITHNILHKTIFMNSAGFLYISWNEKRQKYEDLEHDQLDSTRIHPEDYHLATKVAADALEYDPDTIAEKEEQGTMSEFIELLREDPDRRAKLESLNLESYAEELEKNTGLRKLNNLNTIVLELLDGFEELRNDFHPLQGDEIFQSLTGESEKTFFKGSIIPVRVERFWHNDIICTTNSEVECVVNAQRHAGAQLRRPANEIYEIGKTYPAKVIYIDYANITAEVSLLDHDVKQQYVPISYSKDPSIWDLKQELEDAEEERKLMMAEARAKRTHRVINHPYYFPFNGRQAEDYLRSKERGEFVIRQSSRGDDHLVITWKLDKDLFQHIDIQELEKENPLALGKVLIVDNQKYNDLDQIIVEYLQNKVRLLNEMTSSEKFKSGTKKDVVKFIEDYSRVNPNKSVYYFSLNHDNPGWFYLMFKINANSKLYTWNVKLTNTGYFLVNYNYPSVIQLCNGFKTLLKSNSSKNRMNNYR
Experiment: affinity purification with mass spectrometry; Spt6-3XFLAG captured from yeast lysate on FLAG agarose (lysis buffer 40 mM HEPES-KOH pH 7.5, 10% glycerol, 350 mM NaCl, 0.1% Tween-20; DNase I and heparin), eluted with FLAG peptide; TMT-labelled quantitative LC-MS/MS; strains WT, spt6-F249K, spn1-F267E, spn1-R263D, shifted to non-permissive temperature (37 °C)

binding: binds
B1: Spn1 (wild type) (protein, UniProt Q06505 1-410)
chain: MSTADQEQPKVVEATPEDGTASSQKSTINAENENTKQNQSMEPQETSKGTSNDTKDPDNGEKNEEAAIDENSNVEAAERKRKHISTDFSDDDLEKEEHNDQSLQPTVENRASKDRDSSATPSSRQELEEKLDRILKKPKVRRTRRDEDDLEQYLDEKILRLKDEMNIAAQLDIDTLNKRIETGDTSLIAMQKVKLLPKVVSVLSKANLADTILDNNLLQSVRIWLEPLPDGSLPSFEIQKSLFAALNDLPVKTEHLKESGLGRVVIFYTKSKRVEAQLARLAEKLIAEWTRPIIGASDNYRDKRIMQLEFDSEKLRKKSVMDSAKNRKKKSKSGEDPTSRGSSVQTLYEQAAARRNRAAAPAQTTTDYKYAPVSNLSAVPTNARAVGVGSTLNNSEMYKRLTSRLNKKHK
